Laboratory results taken from the supplement of paper PMC3682954.
“And” between values parts separate entries of the source, which are not always exact repeats. Equal values may be shown once. Where a name gives a salt, the structure may show the parent alone. ± gives the standard deviation of the averaged measurements. The list shows a part of the results. Many values rest on one well or one pass, so single values are uncertain.

System: RAW 264.7
Assay: cell viability (MTT) relative to vehicle control; higher = more viable cells
Settings: stimulus: HMGB1 5 ug/ml, 18 h
[1] = compound concentration: 1 ug/ml

| Compound | cell viability (compound concentration: 3 uM) | cell viability [1] [%] |
| --- | --- | --- |
| CO/N=C(\C(=O)N[C@@H]1C(=O)N2C(C(=O)OCOC(=O)C(C)(C)C)=C(/C=C\c3scnc3C)CS[C@H]12)c1csc(N)n1 | 104% | – |
| CC(=O)Oc1c(C)c(C)c2c(c1C)CCC(C)(CCCC(C)CCCC(C)CCCC(C)C)O2 (racemic) [DL-a-Tocopherol acetate] | – | 115 |
| Cc1sc(N)c(C(=O)c2cccc(C(F)(F)F)c2)c1C | 104% | – |
| O=C(Nc1ccccc1)c1cc([N+](=O)[O-])ccc1Cl | 102% | – |
| C[N+]1(CCCCC[N+]2(C)CCCC2)CCCC1 [Pentolinium bitartrate] | 93.3% | – |
| C[N+]1(CCCCC[N+]2(C)CCCC2)CCCC1 [Pentolinium di[L(+)-tartrate]] | 102% | – |
| CCCc1cc(=O)[nH]c(=S)[nH]1 [Propylthiouracil] | 94.8% | – |
| CCCc1cc(=O)[nH]c(=S)[nH]1 | 102% | – |
| COc1ccc(CCN(C)CCCC(C#N)(c2ccc(OC)c(OC)c2)C(C)C)cc1OC (configuration not stated) [Verapamil hydrochloride] | 106% | – |
| COc1ccc(CCN(C)CCCC(C#N)(c2ccc(OC)c(OC)c2)C(C)C)cc1OC (configuration not stated) [Verapamil] | 115% | – |
| COc1ccc(CCN(C)CCCC(C#N)(c2ccc(OC)c(OC)c2)C(C)C)cc1OC (configuration not stated) | 96.4% and 113% | 96.5 |
| Cc1onc(-c2ccccc2)c1-c1ccc(S(N)(=O)=O)cc1 | 92.7% | – |
| O=C(O)c1cc(O)c2c(c1)C(=O)c1cccc(O)c1C2=O [Rhein] | – | 116 |
| CN1CCc2c(c3ccccc3n2Cc2ccccc2)C1 | 110% | – |
| Fc1ccc(C(c2ccc(F)cc2)N2CCN(C/C=C/c3ccccc3)CC2)cc1 | 100% | – |
| Fc1ccc(C(c2ccc(F)cc2)N2CCN(C/C=C/c3ccccc3)CC2)cc1 [Flunarizine dihydrochloride] | 103 ± 2.9% | – |
| Fc1ccc(C(c2ccc(F)cc2)N2CCN(C/C=C/c3ccccc3)CC2)cc1 [Flunarizine 2HCl] | 115% | – |
| Cn1c(NCCN(CCO)CCCc2ccc([N+](=O)[O-])cc2)cc(=O)n(C)c1=O [Nifekalant] | 106% | – |
| Cn1c(NCCN(CCO)CCCc2ccc([N+](=O)[O-])cc2)cc(=O)n(C)c1=O | 96.7% | – |
| COc1ccc2c(CN3CCOCC3)cc(=O)oc2c1 | – | 103 |
| O=C(OC[C@H]1O[C@@H](OC(=O)c2cc(O)c(O)c(OC(=O)c3cc(O)c(O)c(O)c3)c2)[C@H](OC(=O)c2cc(O)c(O)c(OC(=O)c3cc(O)c(O)c(O)c3)c2)[C@@H](OC(=O)c2cc(O)c(O)c(OC(=O)c3cc(O)c(O)c(O)c3)c2)[C@@H]1OC(=O)c1cc(O)c(O)c(OC(=O)c2cc(O)c(O)c(O)c2)c1)c1cc(O)c(O)c(OC(=O)c2cc(O)c(O)c(O)c2)c1 | 109 ± 13% | – |
| N=C(N)c1ccc(OCCCCCOc2ccc(C(=N)N)cc2)cc1 | 114% | – |
| N=C(N)c1ccc(OCCCCCOc2ccc(C(=N)N)cc2)cc1 [Pentamidine isethionate] | 93.3 ± 28% | – |

Given with bars between the fields: part of the list above.
Compound | cell viability (compound concentration: 3 uM) | cell viability [1] [%]
CC(=O)Oc1c(C)c(C)c2c(c1C)CCC(C)(CCCC(C)CCCC(C)CCCC(C)C)O2 (racemic) [DL-a-Tocopherol acetate] | – | 115
Cc1sc(N)c(C(=O)c2cccc(C(F)(F)F)c2)c1C | 104% | –
O=C(Nc1ccccc1)c1cc([N+](=O)[O-])ccc1Cl | 102% | –
C[N+]1(CCCCC[N+]2(C)CCCC2)CCCC1 [Pentolinium bitartrate] | 93.3% | –
C[N+]1(CCCCC[N+]2(C)CCCC2)CCCC1 [Pentolinium di[L(+)-tartrate]] | 102% | –
CCCc1cc(=O)[nH]c(=S)[nH]1 [Propylthiouracil] | 94.8% | –
CCCc1cc(=O)[nH]c(=S)[nH]1 | 102% | –
COc1ccc(CCN(C)CCCC(C#N)(c2ccc(OC)c(OC)c2)C(C)C)cc1OC (configuration not stated) [Verapamil hydrochloride] | 106% | –
COc1ccc(CCN(C)CCCC(C#N)(c2ccc(OC)c(OC)c2)C(C)C)cc1OC (configuration not stated) [Verapamil] | 115% | –
COc1ccc(CCN(C)CCCC(C#N)(c2ccc(OC)c(OC)c2)C(C)C)cc1OC (configuration not stated) | 96.4% and 113% | 96.5

Remaining list, next part:

| Compound | cell viability (compound concentration: 3 uM) | cell viability [1] [%] |
| --- | --- | --- |
| N=C(N)c1ccc(OCCCCCOc2ccc(C(=N)N)cc2)cc1 [Pentamidine] | 135% | – |
| CCCCC(=O)O[C@H]1CC[C@H]2[C@@H]3CCc4cc(O)ccc4[C@H]3CC[C@]12C [estradiol valerate] | – | 105 |
| CCCCC(=O)O[C@H]1CC[C@H]2[C@@H]3CCc4cc(O)ccc4[C@H]3CC[C@]12C | 111% | – |
| CCCCC(=O)O[C@H]1CC[C@H]2[C@@H]3CCc4cc(O)ccc4[C@H]3CC[C@]12C [Estradiol Valerate] | 104% | – |
| CC(=O)Nc1cc2ccccc2oc1=O [3-Acetamidocoumarin] | 113% | – |
| CC1(C)S[C@@H]2[C@H](NC(=O)[C@H](N)c3ccc(O)cc3)C(=O)N2[C@H]1C(=O)O | 103% | – |
| CC1(C)S[C@@H]2[C@H](NC(=O)[C@H](N)c3ccc(O)cc3)C(=O)N2[C@H]1C(=O)O [Amoxicillin] | 91.6% | – |
| Cn1cnc2c(NCc3ccccc3)nc(NCCO)nc21 [Olomoucine] | 105% | – |
| COc1cccc2c1C(=O)c1c(O)c3c(c(O)c1C2=O)C[C@@](O)(C(=O)CO)C[C@@H]3O[C@H]1C[C@H](N)[C@H](O)[C@H](C)O1 [Doxorubicin HCl] | 13.9% | – |
| COc1cccc2c1C(=O)c1c(O)c3c(c(O)c1C2=O)C[C@@](O)(C(=O)CO)C[C@@H]3O[C@H]1C[C@H](N)[C@H](O)[C@H](C)O1 [Doxorubicin hydrochloride] | 2.84% | – |
| COc1cccc2c1C(=O)c1c(O)c3c(c(O)c1C2=O)C[C@@](O)(C(=O)CO)C[C@@H]3O[C@H]1C[C@H](N)[C@H](O)[C@H](C)O1 | 3.64% and 12% | – |
| CCC(=O)O[C@@H](O[P@](=O)(CCCCc1ccccc1)CC(=O)N1C[C@H](C2CCCCC2)C[C@H]1C(=O)O)C(C)C [Fosinopril] | 104 ± 1.4% | – |
| OCCOCCN1CCN(C2=Nc3ccccc3Sc3ccccc32)CC1 [Quetiapine Fumarate] | 109% | – |
| OCCOCCN1CCN(C2=Nc3ccccc3Sc3ccccc32)CC1 [Quetiapine] | 120% | – |
| OCCOCCN1CCN(C2=Nc3ccccc3Sc3ccccc32)CC1 | 95.8% and 102% | – |
| C[C@H](N)CO | 123% | – |
| O=c1cc(-c2ccccc2O)oc2c(O)c(O)ccc12 | – | 86 |
| Nc1nc(Cl)nc2c1ncn2[C@H]1C[C@H](O)[C@@H](CO)O1 | 83.8% | – |
| Nc1nc(Cl)nc2c1ncn2[C@H]1C[C@H](O)[C@@H](CO)O1 [Cladribine] | 70.9% | – |
| Cc1cccc(C(=O)O)c1O | 113% | – |
| CN[C@@H]1[C@H](O[C@H]2[C@H](O[C@H]3[C@H](O)[C@@H](O)[C@H](N=C(N)N)[C@@H](O)[C@@H]3N=C(N)N)O[C@@H](C)[C@]2(O)C=O)O[C@@H](CO)[C@H](O)[C@H]1O [Streptomycin sulfate] | 93.2% | – |
| CN[C@@H]1[C@H](O[C@H]2[C@H](O[C@H]3[C@H](O)[C@@H](O)[C@H](N=C(N)N)[C@@H](O)[C@@H]3N=C(N)N)O[C@@H](C)[C@]2(O)C=O)O[C@@H](CO)[C@H](O)[C@H]1O [Streptomycin] | 103% | – |
| CN[C@@H]1[C@H](O[C@H]2[C@H](O[C@H]3[C@H](O)[C@@H](O)[C@H](N=C(N)N)[C@@H](O)[C@@H]3N=C(N)N)O[C@@H](C)[C@]2(O)C=O)O[C@@H](CO)[C@H](O)[C@H]1O | 108% | – |
